In article PMC12097095:
Results are given in words; binding and its absence hold for the method and conditions named. For part of these data: Binding seen in cells or lysates may run through a third protein. Some binding calls cover weakened binding; strength is not graded here. For part of these data: Tags and fused reporters may be left off the sequences shown.

Amino acid sequences for entries named in this document (tags omitted). Residues count along the entry.
UniProt O35607, residues 27-1038: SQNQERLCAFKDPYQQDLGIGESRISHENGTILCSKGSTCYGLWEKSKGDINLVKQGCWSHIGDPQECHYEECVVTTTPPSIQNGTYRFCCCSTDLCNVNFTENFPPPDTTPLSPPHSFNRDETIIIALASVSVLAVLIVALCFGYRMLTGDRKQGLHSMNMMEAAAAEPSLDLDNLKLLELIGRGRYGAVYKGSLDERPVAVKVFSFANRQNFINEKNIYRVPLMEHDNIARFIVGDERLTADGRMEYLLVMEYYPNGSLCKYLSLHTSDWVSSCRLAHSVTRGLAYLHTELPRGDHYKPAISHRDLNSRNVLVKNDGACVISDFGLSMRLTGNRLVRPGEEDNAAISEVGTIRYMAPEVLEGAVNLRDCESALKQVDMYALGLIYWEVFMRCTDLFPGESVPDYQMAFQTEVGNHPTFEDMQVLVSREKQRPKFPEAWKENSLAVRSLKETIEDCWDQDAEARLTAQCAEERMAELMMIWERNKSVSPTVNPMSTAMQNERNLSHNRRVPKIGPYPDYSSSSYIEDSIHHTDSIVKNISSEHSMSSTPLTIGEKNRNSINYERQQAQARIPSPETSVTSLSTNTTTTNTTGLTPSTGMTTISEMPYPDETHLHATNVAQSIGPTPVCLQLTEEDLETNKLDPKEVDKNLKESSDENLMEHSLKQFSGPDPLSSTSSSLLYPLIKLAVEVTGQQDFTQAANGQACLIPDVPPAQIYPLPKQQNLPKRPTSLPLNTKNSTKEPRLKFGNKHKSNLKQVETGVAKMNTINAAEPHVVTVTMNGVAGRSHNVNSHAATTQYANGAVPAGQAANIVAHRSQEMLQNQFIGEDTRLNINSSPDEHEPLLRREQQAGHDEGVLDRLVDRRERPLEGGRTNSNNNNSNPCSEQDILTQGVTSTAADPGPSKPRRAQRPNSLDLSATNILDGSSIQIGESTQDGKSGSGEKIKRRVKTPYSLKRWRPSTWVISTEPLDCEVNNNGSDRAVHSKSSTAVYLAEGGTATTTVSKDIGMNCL
UniProt P36895, residues 24-532: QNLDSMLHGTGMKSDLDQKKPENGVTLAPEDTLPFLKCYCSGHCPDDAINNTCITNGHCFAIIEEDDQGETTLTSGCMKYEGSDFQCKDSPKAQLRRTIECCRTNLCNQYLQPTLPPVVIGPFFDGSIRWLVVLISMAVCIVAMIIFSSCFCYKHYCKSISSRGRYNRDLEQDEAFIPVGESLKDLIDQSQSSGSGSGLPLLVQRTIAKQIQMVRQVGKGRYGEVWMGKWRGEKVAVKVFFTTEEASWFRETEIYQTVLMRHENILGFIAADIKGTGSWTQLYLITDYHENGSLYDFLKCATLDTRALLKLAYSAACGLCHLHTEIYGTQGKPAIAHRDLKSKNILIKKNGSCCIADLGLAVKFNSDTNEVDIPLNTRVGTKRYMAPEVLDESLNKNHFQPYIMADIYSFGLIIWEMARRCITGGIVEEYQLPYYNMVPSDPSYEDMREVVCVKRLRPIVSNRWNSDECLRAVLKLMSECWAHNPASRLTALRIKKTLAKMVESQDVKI

Columns and labels:
[1] = target: BMPR2‐FLAG (mouse) (UniProt O35607); experiment: co-IP; HEK293 cells transfected to express BMPR2-FLAG and ALK3-His; NP-40 buffer lysate; anti-Flag or anti-His antibody, Protein A agarose beads; immunoblot
[2] = target: heterodimeric fusion protein BMPR2:ALK3‐Fc (mouse) (UniProt O35607+P36895); experiment: SPR; Biacore; GDF10 with BMPR2:ALK3-Fc (ECDs of mouse BMPR2 and ALK3), dose-dependent; who was immobilised is not stated; both purified
[3] = target: BMPR2‐FLAG (mouse) (UniProt O35607); experiment: co-IP; HEK293 cells transfected to express C-terminal FLAG-tagged BMPR2 and FLAG-tagged ALK3, incubated with GDF10-Fc; 500 µg protein immunoprecipitated with Flag-conjugated beads overnight at 4 °C; blots with anti-Flag and anti-human Fc; only the binder purified
[4] = target: FLAG‐tagged ALK3 (mouse) (UniProt P36895); experiment: as above
[5] = target: BMPR2/ALK3 heterodimeric receptor, both co-expressed on transfected HEK293 cells (mouse) (UniProt O35607+P36895); experiment: flow cytometry on cells; 293 cells transiently transfected with TGF-β superfamily receptor cDNA (one receptor, or Bmpr2 with a type I receptor), incubated with GDF10-Fc or Fc in 5% fetal bovine serum at 4 °C for 1 hour; detected with Alexa Fluor 647 goat anti-human IgG; percentage of expression+ binding+ cells; only the binder purified
[6] = target: BMPR2 expressed alone on transfected HEK293 cells (mouse) (UniProt O35607); experiment: as above

Measured: binding

ALK3‐His (from UniProt P36895 24-532) (receptor)
binds: [1]

B1: recombinant GDF10‐Fc protein (containing the Fc fragment and the mature region of GDF10) (Fc fusion, UniProt P97737 367-476)
chain: QWDEPRVCSRRYLKVDFADIGWNEWIISPKSFDAYYCAGACEFPMPKIVRPSNHATIQSIVRAVGIVPGIPEPCCVPDKMNSLGVLFLDENRNAVLKVYPNMSVETCACR
not listed: [1]
binds: all other assays above
